PubChem BioAssay AID686938 – Drosophila RNAi Screening Center | 2013
Screen: 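Knock-downs reducing store-operated calcium influx in Drosophila cells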 (primary screen). Cell system: Drosophila S2R+ cells. Reagents: long dsRNA against Drosophila genes, about 0.25 µg dsRNA per well, roughly 10,000 cells. Duration: 5 days of knock-down before the calcium assay. Challenge: thapsigargin (SERCA pump blocker) to empty calcium stores; entry signal taken 4 min after adding it. Detection: 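Per-well fluo-4 fluorescence in two replicates, unnormalised, measured in resting cells and 4 min after store depletion by the SERCA blocker thapsigargin; ratio of the two present in few wells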. Direction: calcium entry signal: higher = stronger calcium signal after store depletion; resting calcium signal: higher = higher resting calcium signal. Call rule: 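Hit if the duplicate-averaged plate z-score for entry over resting signal is under −3; wells with weak total dye signal (Fmax z < −2) or more than 5 off-targets removed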. Meaning of the calls: active = strongly reduced calcium entry; inactive = no strong reduction.
The deposit covers about 23,000 reagents; this is an unselected part of those with a known target gene and a result. Over the whole deposit, 75 (0.33%) got an active call. 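Raw plate signals without normalisation; calls rest on plate z-scores that were not deposited; ratio present for only 364 wells.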 A plus sign joins genes that one reagent is predicted to hit. Not stated in the record: the dose of the treatment.

| Target gene | amplicon | calcium entry signal, replicate 1 (fluorescence units) | calcium entry signal, replicate 2 (fluorescence units) | resting calcium signal, replicate 1 (fluorescence units) | resting calcium signal, replicate 2 (fluorescence units) | outcome |
| --- | --- | --- | --- | --- | --- | --- |
| CG31495 (GeneID 261626) | DRSC16762 | 3.80e7 | 5.17e7 | 1.80e7 | 7.96e7 | inactive |
| CG17375 (GeneID 33956) | DRSC02614 | 3.22e7 | 3.12e7 | 1.67e7 | 1.55e7 | inactive |
| Hou (GeneID 32852) | DRSC20001 | 3.87e7 | 3.70e7 | 1.66e7 | 1.59e7 | inactive |
| Hou (GeneID 32852) | DRSC22347 | 3.21e7 | 5.00e7 | 1.56e7 | 2.45e7 | inactive |
| RPA1 (GeneID 40972) | DRSC16830 | 1.86e7 | 2.03e7 | 1.21e7 | 1.16e7 | inactive |
| dpr18 (GeneID 32572) | DRSC19606 | 3.89e7 | 3.40e7 | 1.96e7 | 1.52e7 | inactive |
| CG42712 (retired record) (GeneID 10178815) | DRSC01038 | 3.60e7 | 4.97e7 | 1.80e7 | 2.17e7 | inactive |
| CG5003 (GeneID 43344) | DRSC15694 | 2.90e7 | 4.63e7 | 1.55e7 | 1.88e7 | inactive |
| vito (GeneID 326214) | DRSC21781 | 3.81e7 | 3.43e7 | 2.26e7 | 1.78e7 | inactive |
| CG34188 (GeneID 5740108) | DRSC05549 | 4.34e7 | 4.71e7 | 2.05e7 | 2.13e7 | inactive |
| COX5A (GeneID 41432) | DRSC16611 | 5.31e7 | 4.35e7 | 2.64e7 | 2.07e7 | inactive |
| Eig71Ee (GeneID 39706) | DRSC11152 | 4.18e7 | 4.12e7 | 1.76e7 | 1.45e7 | inactive |
| BckdhA (GeneID 41149) | DRSC16395 | 3.71e7 | 3.68e7 | 1.80e7 | 1.92e7 | inactive |
| HLH4C (GeneID 31397) | DRSC18670 | 4.58e7 | 5.26e7 | 2.08e7 | 2.53e7 | inactive |
| HLH4C (GeneID 31397) | DRSC21322 | 2.22e7 | 2.93e7 | 1.21e7 | 1.33e7 | inactive |
| Pph13 (GeneID 33239) | DRSC00775 | 4.21e7 | – | 2.32e7 | – | inactive |
| Pph13 (GeneID 33239) | DRSC23162 | 4.20e7 | 3.00e7 | 2.10e7 | 1.24e7 | inactive |
| TTLL1A (GeneID 32704) | DRSC20121 | 3.21e7 | 4.08e7 | 1.45e7 | 1.63e7 | inactive |
| CG13243 (GeneID 34933) | DRSC01920 | 4.66e7 | 4.01e7 | 1.98e7 | 1.67e7 | inactive |
| CG31406 (GeneID 318715) | DRSC12777 | 2.83e7 | 4.42e7 | 1.47e7 | 2.24e7 | inactive |
| Fbp2 (GeneID 34259) | DRSC03327 | 4.38e7 | – | 1.99e7 | – | inactive |
| Spn28F (GeneID 49807) | DRSC03615 | 3.30e7 | 4.63e7 | 1.45e7 | 1.89e7 | inactive |
| ERR (GeneID 38912) | DRSC10840 | 4.81e7 | 4.34e7 | 2.98e7 | 2.00e7 | inactive |
| Su(var)2-HP2 (GeneID 36621) | DRSC06204 | 3.75e7 | 4.59e7 | 1.73e7 | 2.08e7 | inactive |
| CG10194 (GeneID 35231) | DRSC02025 | 3.71e7 | – | 2.04e7 | – | inactive |
| CG34286 (GeneID 5740178) | DRSC13372 | 3.96e7 | 3.17e7 | 1.96e7 | 1.51e7 | inactive |
| CG34286 (GeneID 5740178) | DRSC21790 | 4.40e7 | 4.03e7 | 2.47e7 | 1.85e7 | inactive |
| CG12836 (GeneID 35630) | DRSC06182 | 2.88e7 | 3.47e7 | 1.30e7 | 1.55e7 | inactive |
| CG12831 (GeneID 35631) | DRSC06179 | 5.28e7 | 4.07e7 | 2.29e7 | 1.62e7 | inactive |
| CG14013 (GeneID 33786) | DRSC02344 | 2.48e7 | 2.92e7 | 1.24e7 | 1.36e7 | inactive |
| CG6040 (GeneID 42292) | DRSC15954 | 3.02e7 | 2.63e7 | 1.40e7 | 1.19e7 | inactive |
| CG15059 (GeneID 32806) | DRSC19633 | 4.13e7 | 3.51e7 | 2.17e7 | 1.54e7 | inactive |
| pelo (GeneID 34286) | DRSC03588 | 4.14e7 | – | 1.99e7 | – | inactive |
| LManII (GeneID 34437) | DRSC01986 | 4.31e7 | – | 2.27e7 | – | inactive |
| CG5217 (GeneID 42311) | DRSC15740 | 3.61e7 | 2.94e7 | 3.87e7 | 1.26e7 | inactive |
| RagC-D (GeneID 35793) | DRSC07239 | 5.54e7 | 3.36e7 | 2.16e7 | 1.65e7 | inactive |
| RpL32 (GeneID 43573) | DRSC16835 | 1.39e7 | 1.45e7 | 1.01e7 | 1.15e7 | inactive |
| CG9287 (GeneID 34194) | DRSC03186 | 3.88e7 | 5.23e7 | 1.83e7 | 2.28e7 | inactive |
| CG9287 (GeneID 34194) | DRSC22790 | 3.74e7 | 4.03e7 | 1.81e7 | 2.18e7 | inactive |
| CG12320 (GeneID 42189) | DRSC14498 | 3.34e7 | 3.73e7 | 4.19e7 | 1.57e7 | inactive |
| Mtr3 (GeneID 40173) | DRSC10953 | 3.17e7 | 2.09e7 | 1.92e7 | 1.19e7 | inactive |
| CG7213 (GeneID 38924) | DRSC10787 | 2.13e7 | 5.25e7 | 1.05e7 | 2.26e7 | inactive |
| moon (GeneID 32176) | DRSC19497 | 4.01e7 | 5.21e7 | 1.99e7 | 2.27e7 | inactive |
| Pits (GeneID 32205) | DRSC19385 | 1.99e7 | 3.05e7 | 1.32e7 | 2.05e7 | active |
| Pits (GeneID 32205) | DRSC19812 | 3.02e7 | 4.98e7 | 1.52e7 | 2.54e7 | inactive |
| CG4270 (GeneID 33408) | DRSC00648 | 3.20e7 | 2.80e7 | 1.55e7 | 1.35e7 | inactive |
| CG8508 (GeneID 41620) | DRSC16436 | 3.99e7 | 4.64e7 | 1.61e7 | 2.00e7 | inactive |
| Vps4 (GeneID 32777) | DRSC19338 | 3.24e7 | 3.99e7 | 2.39e7 | 2.51e7 | inactive |
| Or82a (GeneID 318778) | DRSC11996 | 3.45e7 | 3.33e7 | 1.74e7 | 1.55e7 | inactive |
| CG13445 (GeneID 39719) | DRSC09992 | 3.52e7 | 4.45e7 | 1.81e7 | 1.96e7 | inactive |
| Dhpr (GeneID 39050) | DRSC11135 | 2.98e7 | 3.80e7 | 1.49e7 | 1.56e7 | inactive |
| dao (GeneID 34891) | DRSC01960 | 4.30e7 | 2.52e7 | 1.91e7 | 1.30e7 | inactive |
| CG5781 (GeneID 34678) | DRSC02893 | 4.20e7 | 2.83e7 | 1.84e7 | 1.36e7 | inactive |
| CG34398 (GeneID 5740462) | DRSC01052 | 6.16e7 | 2.83e7 | 2.85e7 | 1.47e7 | inactive |
| CG34398 (GeneID 5740462) | DRSC02510 | 1.87e7 | 2.65e7 | 9.03e6 | 1.28e7 | inactive |
| CG34398 (GeneID 5740462) | DRSC02511 | 5.29e7 | – | 2.44e7 | – | inactive |
| CG34398 (GeneID 5740462) | DRSC03228 | 2.18e7 | 2.95e7 | 1.04e7 | 1.32e7 | inactive |
| CG34398 (GeneID 5740462) | DRSC23293 | 3.94e7 | 2.53e7 | 1.82e7 | 1.26e7 | inactive |
| DCX-EMAP (GeneID 39617) | DRSC10012 | 5.32e7 | 6.33e7 | 2.53e7 | 2.45e7 | inactive |
| DCX-EMAP (GeneID 39617) | DRSC10013 | 7.49e7 | 9.00e7 | 3.52e7 | 3.10e7 | inactive |
| Elo68beta (GeneID 39245) | DRSC09860 | 2.68e7 | 3.75e7 | 1.41e7 | 1.58e7 | inactive |
| CG8419 (GeneID 34118) | DRSC03087 | 4.47e7 | 6.46e7 | 1.88e7 | 2.59e7 | inactive |
| Sdhaf3 (GeneID 42004) | DRSC15020 | 3.12e7 | 5.19e7 | 1.69e7 | 6.12e7 | inactive |
| esn (GeneID 53557) | DRSC05039 | 2.02e7 | 3.15e7 | 1.10e7 | 1.26e7 | inactive |
| esn (GeneID 53557) | DRSC06181 | 4.89e7 | 3.97e7 | 2.20e7 | 1.84e7 | inactive |
| esn (GeneID 53557) | DRSC07612 | 4.58e7 | 4.46e7 | 2.15e7 | 1.97e7 | inactive |
| CG13071 (GeneID 39781) | DRSC09954 | 3.23e7 | 5.15e7 | 1.83e7 | 2.03e7 | inactive |
| MED8 (GeneID 37305) | DRSC06426 | 4.67e7 | 4.05e7 | 1.90e7 | 1.98e7 | inactive |
| Tsp42Ec (GeneID 35612) | DRSC06192 | 3.13e7 | 2.82e7 | 1.40e7 | 1.28e7 | inactive |
| Traf4 (GeneID 33638) | DRSC00445 | 2.04e7 | 1.92e7 | 1.08e7 | 9.02e6 | inactive |
| Traf4 (GeneID 33638) | DRSC00794 | 4.55e7 | – | 2.50e7 | – | inactive |
| CG13460 (GeneID 39638) | DRSC10007 | 3.28e7 | 5.10e7 | 1.74e7 | 1.94e7 | inactive |
| CG43666 + CG43667 + CG43668 | DRSC03829 | 3.21e7 | 6.60e7 | 1.38e7 | 2.47e7 | inactive |
| CG43666 + CG43667 + CG43668 | DRSC04233 | 5.63e7 | 4.10e7 | 2.58e7 | 1.86e7 | inactive |
| lqf (GeneID 38846) | DRSC11363 | 4.85e7 | 3.99e7 | 3.29e7 | 1.71e7 | inactive |

Targets listed so far whose target name starts with E or e:
| Target gene | amplicon | calcium entry signal, replicate 1 (fluorescence units) | calcium entry signal, replicate 2 (fluorescence units) | resting calcium signal, replicate 1 (fluorescence units) | resting calcium signal, replicate 2 (fluorescence units) | outcome |
| --- | --- | --- | --- | --- | --- | --- |
| Eig71Ee (GeneID 39706) | DRSC11152 | 4.18e7 | 4.12e7 | 1.76e7 | 1.45e7 | inactive |
| ERR (GeneID 38912) | DRSC10840 | 4.81e7 | 4.34e7 | 2.98e7 | 2.00e7 | inactive |
| Elo68beta (GeneID 39245) | DRSC09860 | 2.68e7 | 3.75e7 | 1.41e7 | 1.58e7 | inactive |
| esn (GeneID 53557) | DRSC05039 | 2.02e7 | 3.15e7 | 1.10e7 | 1.26e7 | inactive |
| esn (GeneID 53557) | DRSC06181 | 4.89e7 | 3.97e7 | 2.20e7 | 1.84e7 | inactive |
| esn (GeneID 53557) | DRSC07612 | 4.58e7 | 4.46e7 | 2.15e7 | 1.97e7 | inactive |
